Measurements from article PMC6534332.
Results are given in words; binding and its absence hold for the method and conditions named. In cells and extracts the contact can be indirect. Some entries that bind do so weakly or less than the wild type.

By UniProt entry, the sequences of proteins in these tests, tags left out.
UniProt P26358: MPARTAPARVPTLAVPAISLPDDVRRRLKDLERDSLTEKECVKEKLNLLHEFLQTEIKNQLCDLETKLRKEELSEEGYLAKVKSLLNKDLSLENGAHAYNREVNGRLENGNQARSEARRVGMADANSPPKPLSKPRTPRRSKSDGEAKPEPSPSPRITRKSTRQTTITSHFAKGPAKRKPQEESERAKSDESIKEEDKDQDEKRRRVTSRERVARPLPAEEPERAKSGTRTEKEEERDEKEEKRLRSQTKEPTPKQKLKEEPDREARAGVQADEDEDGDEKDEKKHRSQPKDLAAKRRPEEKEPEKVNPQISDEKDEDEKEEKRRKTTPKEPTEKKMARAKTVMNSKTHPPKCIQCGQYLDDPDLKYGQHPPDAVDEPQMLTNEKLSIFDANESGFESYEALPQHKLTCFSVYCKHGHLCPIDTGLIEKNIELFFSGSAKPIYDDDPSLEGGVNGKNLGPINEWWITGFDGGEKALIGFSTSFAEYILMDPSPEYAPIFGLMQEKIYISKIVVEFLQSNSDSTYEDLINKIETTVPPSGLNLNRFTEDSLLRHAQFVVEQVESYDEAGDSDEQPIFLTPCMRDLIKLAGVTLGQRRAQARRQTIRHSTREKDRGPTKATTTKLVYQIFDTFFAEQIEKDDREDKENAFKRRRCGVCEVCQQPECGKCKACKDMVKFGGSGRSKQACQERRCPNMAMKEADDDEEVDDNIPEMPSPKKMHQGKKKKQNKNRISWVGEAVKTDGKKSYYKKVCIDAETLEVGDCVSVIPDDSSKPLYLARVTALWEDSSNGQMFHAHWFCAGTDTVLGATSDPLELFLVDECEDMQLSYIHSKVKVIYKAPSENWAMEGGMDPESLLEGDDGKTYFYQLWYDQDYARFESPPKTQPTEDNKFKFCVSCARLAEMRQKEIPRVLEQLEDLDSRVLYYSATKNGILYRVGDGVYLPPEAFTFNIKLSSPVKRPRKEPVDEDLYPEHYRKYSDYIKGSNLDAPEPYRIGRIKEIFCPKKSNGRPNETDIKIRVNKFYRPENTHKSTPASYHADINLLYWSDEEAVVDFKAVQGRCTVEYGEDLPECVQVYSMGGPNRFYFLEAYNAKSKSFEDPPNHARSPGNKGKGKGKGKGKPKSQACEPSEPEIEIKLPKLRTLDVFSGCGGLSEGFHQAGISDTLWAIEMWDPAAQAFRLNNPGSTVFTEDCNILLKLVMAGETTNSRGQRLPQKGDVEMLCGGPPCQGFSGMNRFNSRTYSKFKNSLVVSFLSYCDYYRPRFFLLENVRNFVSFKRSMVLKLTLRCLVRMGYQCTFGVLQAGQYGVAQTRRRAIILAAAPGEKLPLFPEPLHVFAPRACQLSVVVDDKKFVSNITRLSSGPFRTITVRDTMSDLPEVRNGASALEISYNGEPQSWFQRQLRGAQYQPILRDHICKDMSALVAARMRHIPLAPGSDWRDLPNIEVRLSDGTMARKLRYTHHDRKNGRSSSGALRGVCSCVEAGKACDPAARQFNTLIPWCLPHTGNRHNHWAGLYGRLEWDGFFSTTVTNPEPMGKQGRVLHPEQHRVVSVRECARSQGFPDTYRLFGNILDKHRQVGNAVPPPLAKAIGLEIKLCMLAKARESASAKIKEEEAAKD
UniProt Q96KQ7: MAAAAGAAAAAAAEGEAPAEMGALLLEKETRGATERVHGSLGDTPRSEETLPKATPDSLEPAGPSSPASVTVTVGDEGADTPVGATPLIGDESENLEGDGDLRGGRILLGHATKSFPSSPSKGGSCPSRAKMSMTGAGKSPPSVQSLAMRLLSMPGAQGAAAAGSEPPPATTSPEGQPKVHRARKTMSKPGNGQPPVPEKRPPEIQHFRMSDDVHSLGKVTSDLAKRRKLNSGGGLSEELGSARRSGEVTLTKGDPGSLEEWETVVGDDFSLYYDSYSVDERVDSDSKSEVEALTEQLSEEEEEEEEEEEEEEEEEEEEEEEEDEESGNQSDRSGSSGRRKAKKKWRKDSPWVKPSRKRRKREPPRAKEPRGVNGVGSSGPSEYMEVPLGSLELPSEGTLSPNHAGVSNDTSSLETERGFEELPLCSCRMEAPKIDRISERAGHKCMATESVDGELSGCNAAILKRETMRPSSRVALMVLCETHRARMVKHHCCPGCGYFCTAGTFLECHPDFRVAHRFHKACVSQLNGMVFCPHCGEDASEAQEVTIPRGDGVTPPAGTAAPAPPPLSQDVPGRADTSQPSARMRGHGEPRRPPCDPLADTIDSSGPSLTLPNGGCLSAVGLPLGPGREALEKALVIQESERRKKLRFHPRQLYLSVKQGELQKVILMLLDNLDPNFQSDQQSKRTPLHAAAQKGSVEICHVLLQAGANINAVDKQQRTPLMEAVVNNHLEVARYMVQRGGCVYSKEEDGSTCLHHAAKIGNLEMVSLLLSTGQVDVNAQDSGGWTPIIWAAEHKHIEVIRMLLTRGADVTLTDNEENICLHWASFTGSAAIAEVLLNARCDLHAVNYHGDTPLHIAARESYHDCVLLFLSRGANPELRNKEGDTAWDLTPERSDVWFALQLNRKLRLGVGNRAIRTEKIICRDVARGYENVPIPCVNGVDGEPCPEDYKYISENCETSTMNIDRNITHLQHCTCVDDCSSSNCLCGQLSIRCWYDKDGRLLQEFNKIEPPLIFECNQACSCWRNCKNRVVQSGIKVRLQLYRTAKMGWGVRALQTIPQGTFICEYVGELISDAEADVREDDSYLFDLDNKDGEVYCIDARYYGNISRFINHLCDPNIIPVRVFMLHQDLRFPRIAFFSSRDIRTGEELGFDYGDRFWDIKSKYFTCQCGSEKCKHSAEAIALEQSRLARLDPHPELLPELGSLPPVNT

Molecular target: DNA methyltransferase-1 (DNMT1) (human (endogenous in human breast cancer cells)) (UniProt P26358)
Assay: co-IP; DNMT1 IP (mouse anti-DNMT1 Ab, control normal mouse IgG) from cell lysate, overnight at 4°C, protein A agarose beads, washes in 50 mM Tris-HCl pH 7.5, 150 mM NaCl, 1 mM MgCl2, 0.5% NP-40; immunoblotting; with or without DNase I or RNase A treatment

binding: binds
Substance: G9a, histone H3K9 methyltransferase (from UniProt Q96KQ7 1-1210) (enzyme)
